Assay [1] addresses T1, endogenous Hsp20 of neonatal rat cardiac myocytes (rat (endogenous in neonatal rat cardiac myocytes)) (UniProt P97541).
T1 sequence: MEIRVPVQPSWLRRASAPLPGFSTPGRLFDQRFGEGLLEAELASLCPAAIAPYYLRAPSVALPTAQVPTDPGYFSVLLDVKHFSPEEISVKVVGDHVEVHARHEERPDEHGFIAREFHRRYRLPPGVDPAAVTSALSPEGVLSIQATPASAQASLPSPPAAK
Kind of assay: co-IP; disruption of the co-IP of endogenous Hsp20 and PKD1 of neonatal cardiac myocytes by the synthetic cell-permeable disruptor peptide, 10 uM; only the binder purified.

Assay [2] has as its target T1, endogenous Hsp20 of neonatal rat cardiac myocytes (rat (endogenous in neonatal rat cardiac myocytes)). Kind of assay: co-IP; endogenous Hsp20 and PKD1 of neonatal cardiac myocytes treated with cell-permeable disruptor (DIS) or control (CTR) peptide, 10 uM.
The target is the same in assay [3]. Kind of assay: co-IP; endogenous proteins of neonatal rat cardiac myocyte lysate; HSP20 or PKD1 antibodies, Protein A beads, 4 C overnight; isotype-matched IgG as mock IP.
For assay [4] the target is unchanged. Kind of assay: proximity ligation; Duolink PLA with primary antibodies against PKD1 and HSP20 in fixed neonatal cardiac myocytes; basal, ISO, control peptide + ISO, disruptor peptide + ISO.
The next assay has as its target T2, His-tagged HSP20 protein (UniProt O14558 1-160).
T2 construct: HSP20 (heat shock protein 20), open reading frame from Ultimate ORF clone IOH57317 in pENTR221, moved into pDEST-17 by Gateway cloning; also called His-HSP20; His-Hsp20; source: E. coli, purified (Ni-NTA Superflow resin); not shown: His, N-terminal, kept
T2 sequence (looked up): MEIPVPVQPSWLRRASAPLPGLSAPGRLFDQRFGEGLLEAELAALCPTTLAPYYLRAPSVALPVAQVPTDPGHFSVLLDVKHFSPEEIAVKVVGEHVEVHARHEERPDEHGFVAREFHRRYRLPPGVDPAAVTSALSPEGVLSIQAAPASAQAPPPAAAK
Kind of assay: pull-down; equal molar purified recombinant His or His-HSP20 and PKD1 mixed in 3T3 lysis buffer, 1 h at 4 C, captured on Ni-NTA Superflow resin, washed three times, blotted with anti-PKD1; both purified.

For a further assay, the target named is T3, Hsp20-V5 (UniProt O14558).
T3 sequence: T2 sequence (looked up)
Kind of assay: co-IP; HEK293 cells transiently transfected with V5-HSP20 and GFP-PKD1; V5 or GFP antibodies, Protein A beads, 4 C overnight; isotype-matched IgG as mock IP.

Results are given in words; binding and its absence hold for the method and conditions named. For part of these data: Binding seen in cells or lysates may run through a third protein. Some binding calls cover weakened binding; strength is not graded here. For part of these data: Sequences can lack the tags named with a protein.

Regarding GRDVAIKIIDKLRFPTKQESQLRNE (N-terminal stearoyl group (CH3(CH2)16COOH)) [Hsp20-PKD1 disruptor peptide], the binding result in assay [1] is listed as “binds”.

B1: endogenous PKD1 of neonatal rat cardiac myocytes (protein, UniProt Q9WTQ1 1-918)
chain: MSAPPLLRPPSPLLPAAAAVAAAAAALVPGSGPAPFPAPGAAPAGGISFHLQIGLSREPVLLLQDSSGDYSLAHVREMACSIVDQKFPECGFYGLYDKILLFRHDPASENILQLVKIASDIQEGDLIEVVLSASATFEDFQIRPHALFVHSYRAPAFCDHCGEMLWGLVRQGLKCEGCGLNYHKRCAFKIPNNCSGVRRRRLSNVSLTGLGTVRTASAEFSTSAPDEPLLSPVSPGFEQKSPSESFIGREKRSNSQSYVGRPIQLDKLLMSKVKVPHTFVIHSYTRPTVCQFCKKLLKGLFRQGLQCKDCRFNCHKRCAPKVPNNCLGEVTINGELLSPGAESDVVMEEGSDDNDSERNSGLMDDMDEAMVQDTEMALAEGQSDGAEMQDPDADQEDSNRTISPSTSNNIPLMRVVQSVKHTKRRSSTVMKEGWMVHYTSKDTLRKRHYWRLDSKSITLFQNDTGSRYYKEIPLSEILCLEPAKPSALIPTGANPHCFEITTANVVYYVGENVVNPSSPPPNNSVPPSGIGTDVARMWEVAIQHALMPVIPKGSSVGSGTNSHKDISVSISVSNSQIQENVDISTVYQIFPDEVLGSGQFGIVYGGKHRKTGRDVAIKIIDKLRFPTKQESQLRNEVAILQNLHHPGVVNLECMFETPERVFVVMEKLHGDMLEMILSSEKGRLPEHITKFLITQILVALRHLHFKNIVHCDLKPENVLLASADPFPQVKLCDFGFARIIGEKSFRRSVVGTPAYLAPEVLRNKGYNRSLDMWSVGVIIYVSLSGTFPFNEDEDIHDQIQNAAFMYPPNPWKEISHEAIDLINNLLQVKMRKRYSVDKTLSHPWLQDYQTWLDLRELECRIGERYITHESDDSRWEQYAGEQGLQYPAHLINLSASHGDSPEAEEREMKALSERVSIL
With B1, the binding result in assay [2], in assay [3] and in assay [4] was “binds” each time.

B2: PKD1 (Abcam), purified recombinant (protein, UniProt Q15139 1-912)
chain: MSAPPVLRPPSPLLPVAAAAAAAAAALVPGSGPGPAPFLAPVAAPVGGISFHLQIGLSREPVLLLQDSSGDYSLAHVREMACSIVDQKFPECGFYGMYDKILLFRHDPTSENILQLVKAASDIQEGDLIEVVLSASATFEDFQIRPHALFVHSYRAPAFCDHCGEMLWGLVRQGLKCEGCGLNYHKRCAFKIPNNCSGVRRRRLSNVSLTGVSTIRTSSAELSTSAPDEPLLQKSPSESFIGREKRSNSQSYIGRPIHLDKILMSKVKVPHTFVIHSYTRPTVCQYCKKLLKGLFRQGLQCKDCRFNCHKRCAPKVPNNCLGEVTINGDLLSPGAESDVVMEEGSDDNDSERNSGLMDDMEEAMVQDAEMAMAECQNDSGEMQDPDPDHEDANRTISPSTSNNIPLMRVVQSVKHTKRKSSTVMKEGWMVHYTSKDTLRKRHYWRLDSKCITLFQNDTGSRYYKEIPLSEILSLEPVKTSALIPNGANPHCFEITTANVVYYVGENVVNPSSPSPNNSVLTSGVGADVARMWEIAIQHALMPVIPKGSSVGTGTNLHRDISVSISVSNCQIQENVDISTVYQIFPDEVLGSGQFGIVYGGKHRKTGRDVAIKIIDKLRFPTKQESQLRNEVAILQNLHHPGVVNLECMFETPERVFVVMEKLHGDMLEMILSSEKGRLPEHITKFLITQILVALRHLHFKNIVHCDLKPENVLLASADPFPQVKLCDFGFARIIGEKSFRRSVVGTPAYLAPEVLRNKGYNRSLDMWSVGVIIYVSLSGTFPFNEDEDIHDQIQNAAFMYPPNPWKEISHEAIDLINNLLQVKMRKRYSVDKTLSHPWLQDYQTWLDLRELECKIGERYITHESDDLRWEKYAGEQGLQYPTHLINPSASHSDTPETEETEMKALGERVSIL
In the case of B2, the binding result with His-tagged HSP20 protein was “binds”.

B3: GFP-PKD1 (protein, UniProt Q15139 1-912)
chain: B2 chain
As for B3, the binding result with Hsp20-V5 is listed as “binds”.
